{
  "source": "the supplement of paper PMC4635364",
  "note": "Counter-ions that a name gives are not always drawn. Some of the results follow. This data set is noisy: repeats of one test often differ as much as different tests do.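 Human fetal ventral-midbrain neural progenitor line ReNCell VM, differentiated without mitogens. Images stained for doublecortin (early neurons) or tyrosine hydroxylase (dopaminergic neurons) were scored by blinded raters against untreated wells (0 = no change). Repeats and both raters were averaged, and compounds averaging 2 or higher were picked as hits for retesting.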",
  "data": [
    {"system": "ReNCell VM", "assay": "dopaminergic neuron differentiation score (TH+ cell fraction vs untreated, manual image score) (score (0 to 3)); higher = more TH+ dopaminergic neuron differentiation", "conditions": "library: Tocriscreen; 2 uM; 4 weeks; BDNF 10 ng/ml + GDNF 10 ng/ml", "values": [
      {"smiles": "Cc1cccc(C(C)c2c[nH]cn2)c1C", "note": "(configuration not stated) [Medetomidine hydrochloride]", "dopaminergic neuron differentiation score": "inactive: 0"},
      {"smiles": "NCc1cc(O)no1", "note": "[Muscimol]", "dopaminergic neuron differentiation score": "inactive: 0"},
      {"smiles": "CC[C@@]1(O)C(=O)OCc2c1cc1n(c2=O)Cc2cc3ccccc3nc2-1", "note": "[Camptothecin]", "dopaminergic neuron differentiation score": "inactive: 0"},
      {"smiles": "N[C@@H](Cn1oc(=O)[nH]c1=O)C(=O)O", "note": "[L-Quisqualic acid]", "dopaminergic neuron differentiation score": "inactive: 0"},
      {"smiles": "O=C1CSC(c2ccccc2Cl)c2cc(Cl)ccc2N1", "note": "(configuration not stated)", "dopaminergic neuron differentiation score": "inactive: 0"},
      {"smiles": "O=C1NC(=O)c2c1c1c3ccccc3n3c1c1c2c2ccccc2n1[C@H]1CC[C@@H]3O1", "dopaminergic neuron differentiation score": "inactive: 0"},
      {"smiles": "Oc1cc2c(cc1O)[C@H]1c3ccccc3CN[C@@H]1CC2", "note": "(racemic) [Dihydrexidine hydrochloride]", "dopaminergic neuron differentiation score": "inactive: 0"}
    ]}
  ]
}
